The values that follow come from PubChem BioAssay AID1508600 (Functional Genomics Laboratory (NCATS/FGL), 2020).

In all, about 53,000 sequences went through this assay and about 3,700 (7%) were called active.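 Rule for the calls: active = gene knockdowns whose robust z-score for IL-1 alpha signal is at least 2 or at most -2, so actives lie on both sides; inactive = the rest.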 The list shows a part of the results.

A short description of this experiment: Components of the Cytosolic LPS Sensing Pathway: Gene Identification via Genome-wide siRNA Screen.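 Note: robust z of the log signal after scaling to non-targeting control siRNA wells of the plate.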 To be noted: RAW264.7 macrophages, IL-1a HTRF, actives lie on both sides, screened at 100 nM (by protocol), cells primed 5 h with Pam3CSK4 first. The essentials:
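Supernatant IL-1a by HTRF from RAW264.7 cells primed with Pam3CSK4 (5 hours) and transfected with LipidA (24 hour) after 48h siRNA knockdown at 100 nM; cell viability checked with CellTiter-Glo.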
(Time-resolved FRET reads energy transfer from a long-lived donor to a nearby acceptor.)
For GGGUUGUCCGGGAGAAAGATT against Wscd2, the z-score was inactive: 0.635.
The value for GGCGAAUCUCAUUAGGGAGTT against Ndor1 was inactive: 0.907; that for GGACUCUGCUUCCAUACUGTT against Pwwp3b was inactive: -0.336.
To GCAUGCUUACGGUCUCCAATT against Ccl1 belongs inactive: 1.59; to GGUGUCACCAAGAAUGAUGTT against Ceacam10, inactive: 0.415.
To GGAAUGGUAUUUCUAUUGUTT against Plek belongs inactive: -0.529.
On to AAGGGUGCCUUAAAAAAACTT against Olfr136, for which the z-score is inactive: 0.0792.
To GGAGAAGGAGAAACAGAAATT against Pmepa1 belongs inactive: -1.27.
To GCUACAUGAUGUUCAUACUTT against Srpx belongs inactive: 0.38; to GGGCAAGAGGAUUAUGACATT against Cdc42, inactive: -0.527; to GGUGGGCACACUUAGGUUUTT against Fam167b, inactive: 1.11.
To GAGAUGAUGGAUGCCCAGCTT against Ndufb7 belongs inactive: 1.67; to GGAACGAUCGAAACAAGAATT against Rarg, inactive: 0.627; to GGACUAAUGUCUCCAACUATT against Rdh7, inactive: -0.0194.
As for GGUGUGUGACUCAGAUACUTT against Has2, the z-score was inactive: -1.15.
To GGAAAGAUUUAUUUUGACGTT against Vnn3 belongs inactive: 0.286; to GUUACAGCUGCCUUUGUUUTT against Olfr893, active: -2.49.
To GGCCUGGAGGACUUUAUAATT against Cyp2a4 belongs inactive: -1.13; to GGAAAAGUGACGGUAUCUATT against Rpsa, active: -2.04.
In the case of GCAAAUUAUUGGAUGAUGCTT against Glod4, the z-score is inactive: 0.388.
The value for GGGUCAAUUGCCAAAACUCTT against Arhgdia was inactive: 0.171; that for GUACUCUUUUUCAUCUUCCTT against Olfr1010 was inactive: -1.5; that for CGAGAAAUUGUAGAAGUAATT against Med30 was inactive: -0.214.
The value for GGCAAUCCAGACGAUAUCUTT against Abca1 was inactive: -0.735.
To GGCAGAACACCUUCUUAGUTT against Dars2 belongs inactive: -0.425; to CCUAUUUGUAGGUGAUGUUTT against B3gnt7, inactive: -0.445; to GGGUUAUGGACACUACCCATT against Tnk1, inactive: -1.84.
On to GCUAUCAAAGCUAAUACAUTT against Mrps9, for which the z-score is active: 3.41.
To GGAAAGACAGGUAAACUCATT against Slc6a17 belongs inactive: 0.31.
For the sequence CCAUCUAUGAUCCCAGAGCTT against Fbxw9, the z-score was inactive: -1.91.
To GGCUCCAACAUAGAAAUGATT against Tpbpa belongs inactive: 0.38.
To GGAAGAUGGAGAUCAGACGTT against Foxd4 belongs inactive: -0.498.
The value for GGGAAACAUCCUCAGGGAUTT against Dcaf8 was inactive: 0.374; that for GGAACGAGACUCAUCUUCUTT against Cic was inactive: 0.786; that for CGGAUCCUACGGAAUUACGTT against Fpgs was inactive: 0.99.
Regarding CCUUUUGUUUUACCUACUCTT against Tbx22, the z-score is active: 2.32.
To GGAGAUUAAGAUUCAGCAGTT against Nmt2 belongs inactive: -1.69; to GGGUCGAUCAUUGUGGUCATT against Olfr508, inactive: -0.826.
GCAUUGACAAUACGACCAGTT against Sgo1: the z-score was inactive: -1.8.
The value for GGUCUGGAUCAGAAGUCAATT against Hrh1 was inactive: 1.76; that for GCUUUAAGGCCGUCAUCCATT against Gale was inactive: -0.229; that for UCAGUCAUGCCUUGAGGCUTT against Rragb was inactive: 0.162.
To CCGGAGCACCAUUAAGGUUTT against Nudt11 belongs active: 4.75; to CCCAACAUUUUCUAUGUGATT against Castor1, inactive: 0.11.
To GCGAAGGUCCCAAAGAUGATT against Cnst belongs inactive: 1.35; to CCUGAGCUUUGAUGUCGAUTT against Arg1, inactive: -0.435; to GGGUUUCUGUUUGAUUCCATT against Gria1, inactive: -0.747.
As to GGGACACCUGGAAUUAAGATT against Spata16, the z-score was inactive: -0.79.
For the sequence GGCGAAUGGGAUUUCUAUUTT against Ttll9, the z-score was inactive: -0.133.
In the case of CCCUUGAGUCAAAUGUCACTT against Lypd10, the z-score was inactive: 0.13.
To GCAGAAGUUAAGAUGCAUATT against Usf1 belongs active: 2.02; to CGAUGUUGUAAAUAAUGCATT against Pdia4, inactive: 1.6; to GGCCUUAGCAAAUAUGGCUTT against Nutf2, inactive: 1.04.
The value for GGACUUCAUGGGUCGCUUUTT against Gstm2 was inactive: -0.185.
The value for GGAGAUUUGAGUCCUCUAGTT against Zfp438 was inactive: -0.719; that for GGCUCUCUGGCUUACUAAGTT against Mrpl37 was inactive: 1.09.
GGUUGACGACUUUGUGUGUTT against Olfr90: the z-score is inactive: 0.318.
The value for GGAUGAGUAUGAGAGGAAUTT against Dcp1a was active: 2.51; that for CCGUUAAUGCCAUGAUCAATT against Olfr1364 was inactive: 0.44.
To GGAAAAGCCUACUUCAAAATT against Efcab7 belongs inactive: 0.9; to GGAAGUGUAUUCAAGAAGUTT against Tapt1, active: 3.02; to GCUAAACUUAAGUCCAUCATT against Supt7l, inactive: -0.592.
Take CGUUGUCAAAAGGACCCAUTT against Pvr: the z-score was inactive: -0.766.
To CCCUAGAGAUGGUGGGUCUTT against Olfr934 belongs inactive: -0.484; to GCAAGGACCAAAUUACAUATT against Itgb3bp, active: 2.45.
To CCAACGGCAAUGGUUGCAUTT against Thoc3 belongs inactive: -0.117.
The value for GGCGCAUGUGCGGAAGAAATT against Tbc1d17 was inactive: 0.785.
As for GGCUCUUCACUCAUGUAUGTT against Olfr703, the z-score is inactive: -0.931.
The value for GCCGGAGACUAUCUGGUAGTT against Hps3 was inactive: 1.26.
